Assay results published in publication doi:10.1101/764829.

Protein sequences, listed by entry. Tags and fused reporters are not part of them. Lines headed by an entry give the natural chain unless they say otherwise; changes in a name come on top.
UniProt Q386H7: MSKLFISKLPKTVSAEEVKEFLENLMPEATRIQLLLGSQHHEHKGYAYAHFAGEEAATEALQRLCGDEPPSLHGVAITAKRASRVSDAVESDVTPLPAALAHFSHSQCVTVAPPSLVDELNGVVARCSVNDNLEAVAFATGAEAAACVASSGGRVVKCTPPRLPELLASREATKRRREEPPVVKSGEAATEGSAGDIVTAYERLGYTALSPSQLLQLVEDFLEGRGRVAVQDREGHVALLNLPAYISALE
UniProt Q57ZJ6: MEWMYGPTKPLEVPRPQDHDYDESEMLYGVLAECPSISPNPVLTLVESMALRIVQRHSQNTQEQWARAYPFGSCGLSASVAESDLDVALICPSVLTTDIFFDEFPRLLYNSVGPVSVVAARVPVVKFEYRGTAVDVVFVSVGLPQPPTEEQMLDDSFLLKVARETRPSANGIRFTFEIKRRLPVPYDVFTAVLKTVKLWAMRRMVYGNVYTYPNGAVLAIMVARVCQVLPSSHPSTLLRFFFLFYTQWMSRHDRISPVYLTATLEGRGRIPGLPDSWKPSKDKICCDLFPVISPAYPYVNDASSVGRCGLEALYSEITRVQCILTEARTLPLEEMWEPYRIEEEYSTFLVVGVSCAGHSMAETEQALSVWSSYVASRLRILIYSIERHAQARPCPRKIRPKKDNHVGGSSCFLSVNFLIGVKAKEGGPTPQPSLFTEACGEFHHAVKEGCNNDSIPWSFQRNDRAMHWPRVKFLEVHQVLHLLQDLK

Target: KKIP12 (Trypanosoma brucei) (UniProt Q386H7)
Test: affinity purification with mass spectrometry

binding: binds
Substance: KKIP8 (from UniProt Q57ZJ6)

These are yes or no findings as the source states them, for the method shown. Binding seen in cells or lysates may run through a third protein. These calls come from enrichment with a bait or labelling near it, and not all partners need be listed.
